PubChem BioAssay AID686943, Drosophila RNAi Screening Center, 2013
Test: 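Knockdowns that increase or decrease active ERK after insulin receptor stimulation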 (primary screen). System: Drosophila S2R+ haemocyte-like cells expressing YFP-tagged ERK (Rolled). Reagents: long dsRNA against Drosophila genes. Treatment: insulin stimulation versus unstimulated cells; dose and duration not given. Measured: 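Per-plate z-scores of phospho-ERK immunostaining normalised to YFP-tagged ERK, measured with and without insulin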. Scale: replicate 1, z-score of dpERK with insulin and replicate 2, z-score of dpERK with insulin: higher = more active ERK per ERK-YFP after insulin; replicate 1, z-score of dpERK under basal conditions: higher = more basal active ERK per ERK-YFP; replicate 1, z-score of ERK-YFP with insulin: higher = more YFP-tagged ERK signal.
The screen tested about 23,000 reagents; this is an unselected part of those that have a named target and a result. 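Extra replicates exist only for a retested subset of genes; insulin dose and duration not given; both raised and lowered dpERK matter.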 The numbers tell different reagents against one gene apart. Names joined by + are all predicted targets of the reagent. No sequences are given here. Not stated in the record: the amount of reagent, the time to read-out.

gene | reagent | replicate 1, z-score of dpERK with insulin | replicate 2, z-score of dpERK with insulin | replicate 1, z-score of dpERK under basal conditions | replicate 1, z-score of ERK-YFP with insulin
CG5111 | 1 | -0.84 | -0.02 | 0.36 | 0.05
CG31676 | 1 | 0.07 | -0.96 | -0.96 | 0.15
UbcE2H | 1 | -0.47 | -2.4 | 0.49 | 0.42
Fbxo42 | 1 | -0.22 | -0.06 | 0.33 | 0.07
Dph4 | 1 | -0.3 | 0.21 | -0.51 | -0.13
CG11110 | 1 | 1.52 | 1.4 | 1.92 | -1.52
CG13042 | 1 | -0.5 | 1.26 | -0.28 | 0.19
CG13306 | 1 | -0.35 | -0.82 | -0.01 | 0.05
Mcad | 1 | 0.09 | 1.15 | 0.18 | 0.38
l(2)gd1 | 1 | 0.04 | 0.78 | -0.24 | 0.07
CCT1 | 1 | -1.23 | 0 | -0.4 | -0.96
CG1409 | 1 | -1.04 | -0.74 | -0.17 | -0.53
trp | 1 | 0.04 | -0.06 | -0.62 | 0.46
CG31637 | 1 | -0.01 | 0.86 | 0.17 | 0.9
CG31637 | 2 | 1.47 | 1 | -0.58 | -0.23
Oct-TyrR | 1 | 0.56 | 0.55 | 1.96 | 0.68
CG34377 | 1 | 0.34 | -0.19 | 0.42 | 0.16
CG34377 | 2 | -0.1 | 0.55 | 0.5 | 1.05
CG34377 | 3 | 0.3 | -0.1 | 0.56 | 0.61
CG34377 | 4 | 0.16 | 0.05 | 0.18 | 0.8
CG34377 | 5 | 0.54 | 0.31 | 0.08 | 0.62
slf | 1 | -0.03 | 0.26 | 0.08 | 0.69
Mgat3 | 1 | -0.2 | -0.45 | -0.55 | -0.46
ko | 1 | 0.41 | 0.46 | 0.28 | 0.19
cass | 1 | -0.35 | 0 | -1 | -1.66
CG15539 | 1 | -0.24 | 0.12 | 0.58 | -0.05
CG34223 | 1 | 0.14 | -0.39 | -1.41 | -0.03
Cngl | 1 | -0.1 | 0.13 | 0.52 | 0.78
Cngl | 2 | 0.26 | 0.38 | -0.22 | -0.01
Cngl | 3 | -4.06 | -2.9 | 2.26 | 4.47
Tbc1d8-9 | 1 | -0.52 | -0.33 | 0 | 0.91
Kyat | 1 | -0.6 | 0.54 | 0.43 | -0.87
Rtnl2 | 1 | 0.75 | 0.65 | -0.21 | -0.86
Rtnl2 | 2 | 0.54 | 0.4 | -0.73 | -1.55
Ets97D | 1 | 0.78 | -0.55 | -0.43 | 0.36
CG8419 | 1 | -1.17 | 0.19 | 0.5 | 0.03
Ccp84Af | 1 | -1.37 | -1.83 | -0.45 | -2.03
CG10993 | 1 | 0.44 | 1.04 | -0.64 | 0.97
CG16815 | 1 | 0.12 | -0.01 | 0.01 | -0.11
hts | 1 | 0.25 | -0.1 | 0.13 | 0.42
ppk11 | 1 | 0.4 | 0.17 | 0.21 | 1.29
CG11700 | 1 | 0 | -0.76 | -2.5 | 0
Gr68a | 1 | 0.99 | 0.06 | -0.51 | 0.17
Or92a | 1 | 0.1 | 0.06 | -0.83 | -0.06
gkt | 1 | 0.3 | 0.47 | 0.45 | 0.03
foxo | 1 | -5.51 | -1.97 | -4.83 | -5.34
foxo | 2 | -0.47 | 0.58 | -0.04 | -0.48
CG9992 | 1 | 0.88 | -0.09 | -0.06 | 0.25
CG9992 | 2 | -0.34 | -0.2 | 0.06 | 0.82
Naa35 | 1 | -1.19 | -0.41 | 0.88 | -0.15
l(3)07882 | 1 | -0.12 | -0.24 | -0.85 | -0.04
CG2991 | 1 | -0.42 | -0.29 | -0.01 | 1.4
CG4375 | 1 | 0.36 | -0.39 | 0.88 | -0.99
CG5194 | 1 | 0.19 | -0.17 | -1.54 | 0.23
spag4 | 1 | 0.22 | -0.22 | -0.01 | 0.51
Obp47b + CG7741 | 1 | -0.1 | 0.18 | -0.18 | 0.95
spaw | 1 | -0.67 | -0.58 | -0.19 | 0.61
Obp69a | 1 | 0.25 | 0.15 | 0.32 | 0.92
CG10126 | 1 | -0.72 | -0.8 | -0.23 | -0.23
CG12986 | 1 | 0.21 | 0.06 | -0.08 | 0.03
Pdh | 1 | 0.3 | -0.07 | -0.09 | -0.31
Acat2 | 1 | 2.35 | 0.91 | -0.1 | -0.51
hbt | 1 | 0.13 | 0.38 | -0.62 | -0.3
hbt | 2 | -0.2 | 0.3 | -1.93 | -0.63
CG33217 | 1 | -0.51 | 0.46 | 0.52 | 1.12
LysX | 1 | -0.02 | 0.13 | 0.93 | 0.77
stumps | 1 | -0.09 | 0.1 | -0.13 | 0.09
stumps | 2 | -2.76 | -0.03 | 1.54 | 0.59
stumps | 3 | 0.7 | -0.32 | 0.49 | 0.44
Fmo-2 | 1 | -0.21 | -0.08 | -0.04 | -0.71
cmpy | 1 | -0.75 | -0.6 | -0.15 | 0.29
ImpE3 | 1 | 1.41 | 3.01 | 0.12 | -1.4
CG9497 | 1 | 0.67 | 0.66 | 0.76 | -0.62
